Source: publication PMC3480639
These are yes or no findings as the source states them, for the method shown. For part of these data: In cells and extracts the contact can be indirect. Some binding calls cover weakened binding; strength is not graded here. For part of these data: Tags and fused reporters may be left off the sequences shown.

Sequences of proteins named here, by UniProt entry; tags and fusion partners are left off.
UniProt Q14974: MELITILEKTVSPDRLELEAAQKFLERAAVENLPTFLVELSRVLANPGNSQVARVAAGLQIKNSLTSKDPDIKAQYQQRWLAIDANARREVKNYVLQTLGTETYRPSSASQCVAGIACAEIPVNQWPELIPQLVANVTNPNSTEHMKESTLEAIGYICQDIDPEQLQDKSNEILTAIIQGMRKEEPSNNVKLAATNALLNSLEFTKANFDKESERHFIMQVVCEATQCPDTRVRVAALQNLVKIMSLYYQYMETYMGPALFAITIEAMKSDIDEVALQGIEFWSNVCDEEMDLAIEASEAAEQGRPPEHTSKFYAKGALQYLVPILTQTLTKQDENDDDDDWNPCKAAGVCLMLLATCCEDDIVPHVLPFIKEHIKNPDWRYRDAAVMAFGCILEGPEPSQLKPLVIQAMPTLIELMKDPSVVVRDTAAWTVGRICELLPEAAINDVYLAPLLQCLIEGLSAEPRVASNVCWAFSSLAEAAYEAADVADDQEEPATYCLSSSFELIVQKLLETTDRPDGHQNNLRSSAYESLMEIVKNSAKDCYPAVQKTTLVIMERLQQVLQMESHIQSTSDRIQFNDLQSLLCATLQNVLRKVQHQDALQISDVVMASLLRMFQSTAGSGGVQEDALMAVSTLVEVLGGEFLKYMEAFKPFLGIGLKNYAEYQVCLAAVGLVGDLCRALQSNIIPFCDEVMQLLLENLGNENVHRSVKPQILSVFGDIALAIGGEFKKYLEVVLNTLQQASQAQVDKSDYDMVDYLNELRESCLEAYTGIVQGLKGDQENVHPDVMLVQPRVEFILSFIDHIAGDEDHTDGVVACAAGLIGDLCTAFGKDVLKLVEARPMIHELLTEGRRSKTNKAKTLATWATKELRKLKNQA

Columns and labels:
His-tagged Importin β [1] = target: His-tagged Importin β (UniProt Q14974); test: pull-down; His-Importin β on TALON (Ni) beads incubated with GST-Repo-Man^1–135 for 1 hr at 4°C in 20 mM HEPES pH 7.4, 110 mM K acetate, 2 mM Mg acetate, 0.2 mM DTT; SDS-PAGE, Coomassie (and autoradiograph for the phosphorylated protein); both purified
His-tagged Importin β [2] = target: His-tagged Importin β (UniProt Q14974); test: pull-down; data not shown: in vitro binding of bacterially expressed full-length Repo-Man to His-Importin β
dsRed-BAF = target: T1, dsRed-BAF (UniProt O75531); test: FRET or BRET; FLIM-FRET in cells in interphase; GFP fusion as donor, mRFP or dsRed fusion as acceptor; multiphoton excitation at 890 nm; at least 20 cells per condition
T1 sequence: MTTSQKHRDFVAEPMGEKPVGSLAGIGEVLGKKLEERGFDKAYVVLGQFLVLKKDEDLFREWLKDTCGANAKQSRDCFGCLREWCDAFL

B1: GST-Repo-Man^1–135 (domain or fragment, UniProt Q69YH5 1-135)
chain: MDANSKDKPPETKESAMNNAGNASFILGTGKIVTPQKHAELPPNPCTPDTFKSPLNFSTVTVEQLGITPESFVRNSAGKSSSYLKKCRRRSAVGARGSPETNHLIRFIARQQNIKNARKSPLAQDSPSQGSPALY
- binding (His-tagged Importin β [1]): binds

B2: full-length Repo-Man expressed in bacteria (protein, UniProt Q69YH5 1-1023)
chain: MDANSKDKPPETKESAMNNAGNASFILGTGKIVTPQKHAELPPNPCTPDTFKSPLNFSTVTVEQLGITPESFVRNSAGKSSSYLKKCRRRSAVGARGSPETNHLIRFIARQQNIKNARKSPLAQDSPSQGSPALYRNVNTLRERISAFQSAFHSIKENEKMTGCLEFSEAGKESEMTDLTRKEGLSACQQSGFPAVLSSKRRRISYQRDSDENLTDAEGKVIGLQIFNIDTDRACAVETSVDLSEISSKLGSTQSGFLVEESLPLSELTETSNALKVADCVVGKGSSDAVSPDTFTAEVSSDAVPDVRSPATPACRRDLPTPKTFVLRSVLKKPSVKMCLESLQEHCNNLYDDDGTHPSLISNLPNCCKEKEAEDEENFEAPAFLNMRKRKRVTFGEDLSPEVFDESLPANTPLRKGGTPVCKKDFSGLSSLLLEQSPVPEPLPQPDFDDKGENLENIEPLQVSFAVLSSPNKSSISETLSGTDTFSSSNNHEKISSPKVGRITRTSNRRNQLVSVVEESVCNLLNTEVQPCKEKKINRRKSQETKCTKRALPKKSQVLKSCRKKKGKGKKSVQKSLYGERDIASKKPLLSPIPELPEVPEMTPSIPSIRRLGSGYFSSNGKLEEVKTPKNPVKRKDLLRHDPDLHMHQGYDKYDVSEFCSYIKSSSSLGNATSDEDPNTNIMNINENKNIPKAKNKSESENEPKAGTDSPVSCASVTEERVASDSPKPALTLQQGQEFSAGGQNAENLCQFFKISPDLNIKCERKDDFLGAAEGKLQCNRLMPNSQKDCHCLGDVLIENTKESKSQSEDLGRKPMESSSVVSCRDRKDRRRSMCYSDGRSLHLEKNGNHTPSSSVGSSVEISLENSELFKDLSDAIEQTFQRRNSETKVRRSTRLQKDLENEGLVWISLPLPSTSQKAKRRTICTFDSSGFESMSPIKETVSSRQKPQMAPPVSDPENSQGPAAGSSDEPGKRRKSFCISTLANTKATSQFKGYRRRSSLNGKGESSLTALERIEHNGERKQ
- binding (His-tagged Importin β [2]): binds

B3: GFP:Repo-Man (protein, UniProt Q69YH5 1-1023)
chain: B2 chain
- binding (dsRed-BAF): no binding
